{
  "sequences": {"note": "The chains behind the UniProt entries cited, without tags or fusion partners. Where a name states a change or a piece, a line headed by the entry shows the natural chain unless it says otherwise.", "UniProt P23771": "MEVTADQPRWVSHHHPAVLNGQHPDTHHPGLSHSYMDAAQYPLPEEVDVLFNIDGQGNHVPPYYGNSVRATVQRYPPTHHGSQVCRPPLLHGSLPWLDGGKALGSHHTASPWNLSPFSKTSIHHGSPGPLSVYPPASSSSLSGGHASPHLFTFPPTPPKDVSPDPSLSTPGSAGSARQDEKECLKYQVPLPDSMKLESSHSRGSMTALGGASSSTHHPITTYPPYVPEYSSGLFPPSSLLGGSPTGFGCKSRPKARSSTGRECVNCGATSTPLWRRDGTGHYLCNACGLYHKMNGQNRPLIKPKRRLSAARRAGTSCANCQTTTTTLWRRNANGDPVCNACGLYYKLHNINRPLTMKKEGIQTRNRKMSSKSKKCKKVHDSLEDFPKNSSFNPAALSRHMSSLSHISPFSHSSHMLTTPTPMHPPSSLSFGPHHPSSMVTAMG", "UniProt P51532": "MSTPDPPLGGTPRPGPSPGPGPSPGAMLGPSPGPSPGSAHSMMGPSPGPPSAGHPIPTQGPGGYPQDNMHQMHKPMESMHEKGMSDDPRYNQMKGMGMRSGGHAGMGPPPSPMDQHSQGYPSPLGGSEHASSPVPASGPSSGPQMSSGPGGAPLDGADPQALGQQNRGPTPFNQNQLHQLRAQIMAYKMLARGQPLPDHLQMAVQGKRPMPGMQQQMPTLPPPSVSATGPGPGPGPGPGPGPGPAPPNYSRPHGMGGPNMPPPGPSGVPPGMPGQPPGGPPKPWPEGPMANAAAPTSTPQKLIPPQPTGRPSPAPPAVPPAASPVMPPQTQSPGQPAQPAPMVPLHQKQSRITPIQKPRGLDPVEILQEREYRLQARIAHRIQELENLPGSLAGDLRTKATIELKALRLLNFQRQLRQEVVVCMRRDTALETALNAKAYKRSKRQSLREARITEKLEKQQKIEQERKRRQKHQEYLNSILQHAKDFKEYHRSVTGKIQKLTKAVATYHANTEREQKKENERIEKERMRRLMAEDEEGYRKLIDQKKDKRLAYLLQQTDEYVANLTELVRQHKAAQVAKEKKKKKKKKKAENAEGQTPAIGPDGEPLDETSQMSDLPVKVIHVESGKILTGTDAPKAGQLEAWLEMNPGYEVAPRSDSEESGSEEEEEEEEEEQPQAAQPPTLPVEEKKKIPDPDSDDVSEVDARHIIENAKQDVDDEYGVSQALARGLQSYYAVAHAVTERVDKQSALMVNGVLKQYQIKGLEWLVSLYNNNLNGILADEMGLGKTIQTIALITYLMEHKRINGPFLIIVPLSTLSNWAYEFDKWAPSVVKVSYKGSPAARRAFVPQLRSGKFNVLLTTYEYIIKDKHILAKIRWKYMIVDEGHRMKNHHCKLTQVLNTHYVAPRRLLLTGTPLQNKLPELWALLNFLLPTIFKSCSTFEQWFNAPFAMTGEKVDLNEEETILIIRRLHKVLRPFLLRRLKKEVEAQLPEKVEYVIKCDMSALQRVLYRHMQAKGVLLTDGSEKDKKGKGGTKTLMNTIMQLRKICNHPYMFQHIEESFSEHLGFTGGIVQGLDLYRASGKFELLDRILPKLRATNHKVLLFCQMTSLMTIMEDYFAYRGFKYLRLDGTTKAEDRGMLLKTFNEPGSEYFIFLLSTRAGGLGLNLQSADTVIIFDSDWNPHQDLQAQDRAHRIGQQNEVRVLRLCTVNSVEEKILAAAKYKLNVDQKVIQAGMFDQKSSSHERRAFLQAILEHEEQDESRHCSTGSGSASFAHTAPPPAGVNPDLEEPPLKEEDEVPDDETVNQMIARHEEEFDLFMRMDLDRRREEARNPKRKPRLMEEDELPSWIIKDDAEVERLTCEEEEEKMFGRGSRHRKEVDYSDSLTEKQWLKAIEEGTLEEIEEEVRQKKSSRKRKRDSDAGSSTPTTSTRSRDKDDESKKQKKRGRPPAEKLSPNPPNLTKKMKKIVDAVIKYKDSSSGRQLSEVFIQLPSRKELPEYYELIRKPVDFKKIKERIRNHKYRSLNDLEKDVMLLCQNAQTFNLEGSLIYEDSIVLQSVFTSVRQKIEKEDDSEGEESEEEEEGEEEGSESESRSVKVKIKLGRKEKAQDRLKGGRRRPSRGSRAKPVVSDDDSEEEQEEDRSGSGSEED"},
  "source": "paper PMC4769547",
  "key": {"[1]": {"molecular_target": "GATA3 (endogenous, T47D) (human (endogenous in T47D)) (UniProt P23771)", "assay": "co-IP; endogenous GATA3 immunoprecipitated from T47D nuclear extracts with GATA3 antibody; immunoblots"}, "[2]": {"molecular_target": "Ty1-GATA3 (wild-type GATA3) (human) (UniProt P23771)", "assay": "co-IP; Ty1-GATA3 immunoprecipitated from MDA-MB-231 nuclear extracts with Ty1 antibody; immunoblots"}},
  "note": "Results are given in words; binding and its absence hold for the method and conditions named. In cells and extracts the contact can be indirect. Some results given as binding are weak or reduced against the parent protein; the word gives no strength.",
  "data": [
    {"substance": "BRG1 (endogenous, T47D) (from UniProt P51532 1-1647)", "values": [
      {"measurement": "binding", "setting": "[1]", "result": "binds"}
    ]},
    {"substance": "BRG1 (from UniProt P51532 1-1647)", "values": [
      {"measurement": "binding", "setting": "[2]", "result": "binds"}
    ]}
  ]
}
